Experimental data reported in paper PMC5415086 (Nature, 2010).
Read-outs that look alike come from different tables or passages of the source.

Columns and labels:
[1] = test system: mice injected with heat-killed Salmonella typhimurium; conditions: 30 mg/kg before heat-killed Salmonella typhimurium (5×10^9/kg i.v.)
[2] = i.v.
[3] = test system: mice with polymicrobial peritonitis and sepsis caused by CLP; conditions: 30 mg/kg twice a day for two days

## CCNC(=O)C[C@@H]1N=C(c2ccc(Cl)cc2)c2cc(OC)ccc2-n2c(C)nnc21 [I-BET]
[1]
  survival: prevent or attenuate death
LPS-treated C57BL/6 mice; 30 mg/kg i.v. 1 hour before LPS (5 mg/kg i.p.)
  survival: prevent or attenuate death
LPS-treated C57BL/6 mice; single dose 30 mg/kg i.v. 1.5 hours after LPS (5 mg/kg i.p.)
  survival: cured the mice
[2]
  serum titres after injection: remain within the effective concentrations for several hours
[3]
  survival: protected mice against death
